According to the supplement of paper PMC7125110:
± gives the standard error. Many of these values have a large error.

B1: glmS ribozyme (parent)
chain: AUAAAAGCGCCAGAACUACAGAAAUGUAGUUGACGAGGAGGAGGUUUAUCGAAUUUUCGGCGGAUGCCUCCAAA

Variants of: B1
Test: kcat; higher = faster cleavage; RNA array
Settings: with glucosamine-6-phosphate
Procedure, shortened: (§1)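 Barcoded ribozyme variants were transcribed in situ on sequenced MiSeq chips by E. coli RNA polymerase. At 37 °C, a hybridised Cy3 probe tracked them while glucosamine-6-phosphate (40 μM to 10 mM) in HEPES/KCl/Mg(OAc)2 buffer flowed in and tiles were imaged over ~14 h. Per-tile medians of signals normalised to baseline and to non-cleaving reference variants were fit to one- or two-exponential decays, giving kobs. kcat and KM came from weighted Michaelis–Menten fits across concentrations.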
For G29C U54C, the kcat was 0.00154 ± 0.00063 s⁻¹.
With G29C U54A the kcat was 0.00648 ± 0.0047 s⁻¹.
Work on G13U A53G C68G yielded a kcat of 4.16e-05 ± 3.1e-06 s⁻¹.
Variant C11U G29U U54A has a kcat of 0.00045 ± 0.00029 s⁻¹.
A15G U45A showed a kcat of 0.152 ± 0.093 s⁻¹.
A12U C71A gave a kcat of 0.0145 ± 0.013 s⁻¹.
With G7C A14G the kcat was less than 1e-05 s⁻¹.
With A33U C34G the kcat was less than 1e-05 s⁻¹.
A6G A15C A53G showed a kcat of 3.4e-05 ± 1.8e-05 s⁻¹.
A33C A36C showed a kcat of less than 1e-05 s⁻¹.
In the case of C11U U65A C71U, the kcat is reported as 0.000194 ± 1.4e-05 s⁻¹.
Variant G29U C34U C50G C70U has a kcat of 5.76e-05 ± 3.4e-05 s⁻¹.
Work on A14G G35C yielded a kcat of less than 1e-05 s⁻¹.
For A33G A36U, the kcat was 1.1e-05 ± 6.8e-06 s⁻¹.
Variant A12C U47A C58U C67U C68A has a kcat of 2.23e-05 ± 1.6e-05 s⁻¹.
For U31A U57G, the kcat was 4.33e-05 ± 3.3e-06 s⁻¹.
U30G A42G was tested, and the kcat was 0.0358 ± 0.028 s⁻¹.
Variant A15U A64C has a kcat of 3.64e-05 ± 1.9e-05 s⁻¹.
C16U U57G U65A C70A gave a kcat of 3.5e-05 ± 3.4e-05 s⁻¹.
For G13A A42G C70U C71A, the kcat was 1.41e-05 ± 7.7e-06 s⁻¹.
Variant U30A U65C has a kcat of 0.000105 ± 8e-06 s⁻¹.
With U30C G37U C58A C68G the kcat was 7.67e-05 ± 5.1e-05 s⁻¹.
U2C gave a kcat of 0.0171 ± 0.011 s⁻¹.
With A14G G51U the kcat was less than 1e-05 s⁻¹.
A12C U56A A64C gave a kcat of 2.44e-05 ± 1.3e-05 s⁻¹.
In the case of G37A A53G, the kcat is reported as 0.00824 ± 0.0053 s⁻¹.
In the case of A14G U45G, the kcat is reported as 0.0225 ± 0.0076 s⁻¹.
C11A U56A showed a kcat of 0.000143 ± 1.9e-06 s⁻¹.
Variant C10A C70A has a kcat of 4.61e-05 ± 2.5e-05 s⁻¹.
G37U C50U C70U showed a kcat of 3.99e-05 ± 1.4e-05 s⁻¹.
Work on C10A U47A C70A yielded a kcat of 3.45e-05 ± 2.8e-05 s⁻¹.
G13A C58U was tested, and the kcat was 0.000256 ± 0.00015 s⁻¹.
For A14C C70U, the kcat was 0.0166 ± 0.016 s⁻¹.
With C10A C67A the kcat was 1.61e-05 ± 1.2e-05 s⁻¹.
G35A U47A C50G U54G gave a kcat of 5.89e-05 ± 4.8e-05 s⁻¹.
C10A G63U gave a kcat of less than 1e-05 s⁻¹.
For A14U A53G, the kcat was 0.0134 ± 0.0067 s⁻¹.
A14U A53C gave a kcat of 0.00136 ± 0.00017 s⁻¹.
Work on G7U C10U G35A C68G yielded a kcat of 0.000129 ± 9.3e-05 s⁻¹.
In the case of C11U A15U U57G C58U C67U, the kcat is reported as 4.57e-05 ± 3.3e-05 s⁻¹.
G29C G62U gave a kcat of less than 1e-05 s⁻¹.
Variant A12G U31A G32U has a kcat of 6.44e-05 ± 1.1e-06 s⁻¹.
Variant G29U U69G has a kcat of 5.24e-05 ± 1.4e-05 s⁻¹.
With C10U C70U the kcat was 2.53e-05 ± 1.3e-06 s⁻¹.
With A33U G51A the kcat was less than 1e-05 s⁻¹.
C10G G13C was tested, and the kcat was 1.15e-05 ± 1e-05 s⁻¹.
For A14G U49A, the kcat was 3.99e-05 ± 1e-06 s⁻¹.
Work on U30A U31A yielded a kcat of 0.0143 ± 0.0085 s⁻¹.
For C11A U30A U45G, the kcat was 2.81e-05 ± 1.1e-06 s⁻¹.
With A33C A53G the kcat was 0.000631 ± 0.0004 s⁻¹.
G32U G63C C71G was tested, and the kcat was 6.29e-05 ± 4.6e-05 s⁻¹.
Variant A14G U47G has a kcat of 0.0391 ± 0.033 s⁻¹.
Work on C10A C34U G44A C70A yielded a kcat of 3.25e-05 ± 2.3e-05 s⁻¹.
U31C U69C was tested, and the kcat was 0.00106 ± 0.00057 s⁻¹.
In the case of A12C U56C, the kcat is reported as 0.00595 ± 0.0046 s⁻¹.
In the case of C11G U46G C58G C67U, the kcat is reported as 0.00034 ± 0.00027 s⁻¹.
U31A G32A gave a kcat of 0.00184 ± 0.00083 s⁻¹.
C16G A39C gave a kcat of 0.000798 ± 6e-05 s⁻¹.

Variants of: B1
Test: KM; higher = weaker cofactor use; RNA array
Settings: with glucosamine-6-phosphate
Procedure, shortened: as §1
G29C U54C showed a KM of 1640 ± 1000 µM.
G13U A53G C68G was tested, and the KM was 79.2 ± 50 µM.
A15G U45A showed a KM of 5160 ± 3500 µM.
C11U U65A C71U gave a KM of 3610 ± 470 µM.
A14G G35C gave a KM of 95.6 ± 49 µM.
In the case of U31A U57G, the KM is reported as 2970 ± 780 µM.
Work on U30G A42G yielded a KM of 6750 ± 6400 µM.
Work on A15U A64C yielded a KM of 10800 ± 10000 µM.
With U30A U65C the KM was 2860 ± 590 µM.
U2C gave a KM of 717 ± 630 µM.
With G37A A53G the KM was 6050 ± 4500 µM.
For A14G U45G, the KM was 3450 ± 1400 µM.
Work on C11A U56A yielded a KM of 2090 ± 78 µM.
G13A C58U showed a KM of 18600 ± 16000 µM.
In the case of A14U A53G, the KM is reported as 4790 ± 3200 µM.
Work on A14U A53C yielded a KM of 1970 ± 410 µM.
Variant A12G U31A G32U has a KM of 5790 ± 240 µM.
C10U C70U gave a KM of 777 ± 240 µM.
For A33U G51A, the KM was 394 ± 130 µM.
A14G U49A showed a KM of 773 ± 130 µM.
Variant U30A U31A has a KM of 1810 ± 1500 µM.
For C11A U30A U45G, the KM was 3690 ± 410 µM.
For A33C A53G, the KM was 17400 ± 14000 µM.
U31C U69C gave a KM of 2610 ± 2100 µM.
A12C U56C gave a KM of 11500 ± 10000 µM.
In the case of U31A G32A, the KM is reported as 5430 ± 3400 µM.
C16G A39C was tested, and the KM was 2400 ± 310 µM.

Variants of: B1
Test: self-cleavage kobs at 640 uM GlcN6P; higher = faster cleavage; RNA array
Settings: with glucosamine-6-phosphate
Procedure, shortened: as §1
With G13U A53G C68G the “self-cleavage kobs at 640 uM GlcN6P” value was 3.25e-05 ± 2.5e-05 s⁻¹.
For C16U U57G U65A C70A, the “self-cleavage kobs at 640 uM GlcN6P” value was 5.74e-05 ± 3.6e-05 s⁻¹.
For U30A U65C, the “self-cleavage kobs at 640 uM GlcN6P” value was 2.31e-05 ± 1.9e-05 s⁻¹.
For C10A U47A C70A, the “self-cleavage kobs at 640 uM GlcN6P” value was 3.8e-05 ± 3.3e-05 s⁻¹.
In the case of G13A C58U, the “self-cleavage kobs at 640 uM GlcN6P” value is reported as 2.22e-05 ± 1.9e-05 s⁻¹.
In the case of C10A C67A, the “self-cleavage kobs at 640 uM GlcN6P” value is reported as 0.000698 ± 0.00046 s⁻¹.
G7U C10U G35A C68G was tested, and the “self-cleavage kobs at 640 uM GlcN6P” value was 0.000937 ± 0.00048 s⁻¹.
In the case of C10A C34U G44A C70A, the “self-cleavage kobs at 640 uM GlcN6P” value is reported as 9.27e-05 ± 5.4e-05 s⁻¹.

Variants of: B1
Test: self-cleavage kobs at 10000 uM GlcN6P; higher = faster cleavage; RNA array
Settings: with glucosamine-6-phosphate
Procedure, shortened: as §1
With A6G A15C A53G the “self-cleavage kobs at 10000 uM GlcN6P” value was 1.9e-05 ± 1.6e-05 s⁻¹.
With G29U C34U C50G C70U the “self-cleavage kobs at 10000 uM GlcN6P” value was 2.4e-05 ± 1.6e-05 s⁻¹.
A12C U56A A64C was tested, and the “self-cleavage kobs at 10000 uM GlcN6P” value was 3.13e-05 ± 1.6e-05 s⁻¹.
In the case of C10A C70A, the “self-cleavage kobs at 10000 uM GlcN6P” value is reported as 1.96e-05 ± 1.1e-05 s⁻¹.
C10A U47A C70A was tested, and the “self-cleavage kobs at 10000 uM GlcN6P” value was 2.58e-05 ± 2.3e-05 s⁻¹.
For C11U A15U U57G C58U C67U, the “self-cleavage kobs at 10000 uM GlcN6P” value was 2.06e-05 ± 1.8e-05 s⁻¹.

Variants of: B1
Test: self-cleavage kobs at 40 uM GlcN6P; higher = faster cleavage; RNA array
Settings: with glucosamine-6-phosphate
Procedure, shortened: as §1
With G29U C34U C50G C70U the “self-cleavage kobs at 40 uM GlcN6P” value was 2.08e-05 ± 1.5e-05 s⁻¹.
In the case of G35A U47A C50G U54G, the “self-cleavage kobs at 40 uM GlcN6P” value is reported as 3.13e-05 ± 2.3e-05 s⁻¹.
G7U C10U G35A C68G was tested, and the “self-cleavage kobs at 40 uM GlcN6P” value was 5.39e-05 ± 3.1e-05 s⁻¹.
For C11U A15U U57G C58U C67U, the “self-cleavage kobs at 40 uM GlcN6P” value was 2.89e-05 ± 2e-05 s⁻¹.
C10A C34U G44A C70A was tested, and the “self-cleavage kobs at 40 uM GlcN6P” value was 3.03e-05 ± 2.8e-05 s⁻¹.
A12C U56C was tested, and the “self-cleavage kobs at 40 uM GlcN6P” value was 2.87e-05 ± 1.6e-05 s⁻¹.
For U31A G32A, the “self-cleavage kobs at 40 uM GlcN6P” value was 1.69e-05 ± 1.3e-05 s⁻¹.
For C16G A39C, the “self-cleavage kobs at 40 uM GlcN6P” value was 1.31e-05 ± 1.1e-05 s⁻¹.

Variants of: B1
Test: self-cleavage kobs at 2500 uM GlcN6P; higher = faster cleavage; RNA array
Settings: with glucosamine-6-phosphate
Procedure, shortened: as §1
In the case of U31A U57G, the “self-cleavage kobs at 2500 uM GlcN6P” value is reported as 2.08e-05 ± 1.9e-05 s⁻¹.
A12C U56A A64C was tested, and the “self-cleavage kobs at 2500 uM GlcN6P” value was 1.69e-05 ± 9.1e-06 s⁻¹.
With G37U C50U C70U the “self-cleavage kobs at 2500 uM GlcN6P” value was 4.92e-05 ± 2.7e-05 s⁻¹.
With G13A C58U the “self-cleavage kobs at 2500 uM GlcN6P” value was 2.73e-05 ± 1.4e-05 s⁻¹.
With A14G U49A the “self-cleavage kobs at 2500 uM GlcN6P” value was 3.19e-05 ± 1.9e-05 s⁻¹.

Variants of: B1
Test: self-cleavage kobs at 160 uM GlcN6P; higher = faster cleavage; RNA array
Settings: with glucosamine-6-phosphate
Procedure, shortened: as §1
For C11U A15U U57G C58U C67U, the “self-cleavage kobs at 160 uM GlcN6P” value was 2.64e-05 ± 1.7e-05 s⁻¹.
